From patent US8580829B2 (Boehringer Ingelheim International GmbH, priority 2010, dated 2013)

Sequences of proteins named here, by UniProt entry; tags and fusion partners are left off.
UniProt P20292, whole entry: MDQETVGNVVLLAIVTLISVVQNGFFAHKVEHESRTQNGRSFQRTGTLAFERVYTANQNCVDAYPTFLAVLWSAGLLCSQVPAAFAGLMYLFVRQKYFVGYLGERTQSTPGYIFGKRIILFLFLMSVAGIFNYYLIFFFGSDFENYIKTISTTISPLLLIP

Legend:
[1] = molecular target: recombinant human FLAP protein (Homo sapiens, UniProt P20292); assay: FLAP binding assay (Scintillation Proximity Assay, displacement of [125I]L-691,831); settings: read-out: FLAP SPA IC50; recombinant human FLAP membranes, [125I]L-691,831 probe
[2] = tested on: synthesis of LTB4 in human whole blood; assay: human whole blood LTB4 production inhibition assay; type: cell-based; settings: read-out: hWB LTB4 IC50; heparinized human whole blood, calcimycin 20 μM
Protocol: Compounds are additionally tested in a human whole blood assay to determine their ability to inhibit the synthesis of LTB4 in a cellular system. Compounds are combined with heparinized human whole blood and incubated for 15 minutes at 37° C. Calcimycin (20 μM final, prepared in phosphate-buffered saline, pH 7.4) is then added and the mixture is incubated for another 30 minutes at 37° C. The samples are centrifuged for 5 min at low speed (1500×g) and the plasma layer is removed. Plasma LTB4 concentrations are then measured using an antibody-based homogenous time-resolved fluorescence method (CisBio, Bedford, Mass.).

IC50 [1]: 4 nM
IC50 [2]: 60 nM
Structure (SMILES): Nc1ncc(-c2ccc(C3(c4noc(-c5csc(N6CCNCC6)n5)n4)CCC3)cc2)cn1 [Example 266, 5-(4-{1-[5-(2-Piperazin-1-yl-thiazol-4-yl)-[1,2,4]oxadiazol-3-yl]-cyclobutyl}-phenyl)-pyrimidin-2-ylamine]

Structures were worked out from names or drawings and are uncertain.
